This series deals with VEGF165. The experiment in a line: SPR. As to conditions: 25 C, purified recombinant protein, protein details: PeproTech 100-20, single-stranded DNA.

For at least one entry, the source does not settle the construct or the ends of the probe.

Consider “CCTTAGTTTAAAGTCACGTCTTAGTTTAAGGAAAAAAAAAAAAAAAAAAAA [Aptamer 2 VEGF746CaP_5s31 with 3' poly(dA)20]”, for which, under “SB1T pH 7.4, 1 mM MgCl2, 0.01% Tween 20”, the Kd came to 0.0907 nM. For the sequence “CCGTAAACAGTTCTGGTTCCTTAGTTTAAAGTCACGTCTTAGTTTAAGGAAAAAAAAAAAAAAAAAAAA [Aptamer 3 VEGF746CaP_5s49 with 3' poly(dA)20]”, where the note is “SB1T pH 7.5, 1 mM MgCl2, no Ca”, the Kd turned out to be 0.107 nM.

The values are drawn from patent publication US20220396792.
